One sequence from patent US7674464B2, “Intracellular interleukin-1 receptor antagonists” (The University of Tennessee Research Foundation, priority 2004, dated 2010) can be followed below.

The data set relates to dermal fibroblasts. Briefly: uptake and subcellular localisation of 125I-labeled peptide in dermal fibroblasts. It is filed as cell-based.

Regarding “RPSGRKSSKMQAFRIWDVNQKTFYLRNNQLVAGYL (IL-1ra peptides representing the mature form of human sIL-1ra) [IL-1ra 1-35, synthetic peptide, residues 1-35 of mature human sIL-1ra]”, the “uptake by fibroblasts and localisation” value is “taken up by fibroblasts, and localized to the vesicles, cytosol and nucleus”. For the same sequence, the “uptake of the labeled peptide by fibroblasts” value (40 μg 125I peptide, 3 hours at 37° C., fibroblast monolayer) worked out at 1.5%. Also, for the setting “total CPM 15,032”, the “share of recovered cellular CPM localized in the cytosol” value was 34.8%, the “share of recovered cellular CPM localized in the nucleus” value was 12%, the “share of recovered cellular CPM localized in the plasma membrane” value is recorded as 21.2% and the “share of recovered cellular CPM localized in vesicles” value was found to be 31.9%.
